Percent effect of library compounds

By UniProt entry, the sequences of proteins in these tests, tags left out.
UniProt P9WNZ1, whole entry: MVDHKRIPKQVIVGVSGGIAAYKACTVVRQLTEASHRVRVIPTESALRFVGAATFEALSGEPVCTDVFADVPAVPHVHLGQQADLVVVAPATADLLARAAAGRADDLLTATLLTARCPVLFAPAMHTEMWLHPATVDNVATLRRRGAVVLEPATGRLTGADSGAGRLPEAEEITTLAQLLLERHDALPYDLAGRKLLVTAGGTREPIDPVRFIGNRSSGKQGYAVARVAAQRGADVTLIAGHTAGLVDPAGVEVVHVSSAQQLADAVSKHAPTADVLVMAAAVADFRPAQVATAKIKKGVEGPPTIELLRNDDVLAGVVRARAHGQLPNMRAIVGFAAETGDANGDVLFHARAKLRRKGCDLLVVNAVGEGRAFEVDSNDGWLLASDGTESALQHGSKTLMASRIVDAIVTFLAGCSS

A: 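Cell assay of Leishmania donovani living inside macrophages; the read-out is not stated. Tested at 30 µM. Direction is inferred from retests: higher values go with stronger inhibition. About 69,000 compounds were tested under these conditions; 1.5% (about 1,000) showed 50% or more at least once.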
B: 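Enzyme assay of CoaBC with a phosphate dye (Biomol Green) read at 650 nm. Target: Coenzyme A biosynthesis protein CoaBC, Mycobacterium tuberculosis (UniProt P9WNZ1). Tested at 30 µM. Higher reads as stronger inhibition, judged from the few compounds that gave an IC50. Most strong results did not repeat in a second test. Size under these conditions: about 67,000 compounds, about 40 of them at 50% or above in at least one test.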

The filed quantity is “Percent Effect” (%).
How 0% and 100% were set is not recorded. Most values in the screen are low, and negative values occur.
The compounds are a random part of those screened.
Two or more numbers in one place are separate tests of the same structure; such repeats can differ widely.
A dash means the value is not listed here; it may have been measured.

structure | A | B
CN(C(=O)CNC(=O)CC(C)(C)C)C1CCN(c2ccccn2)CC1 | 7.352 | 2.419
O=C(O)C(F)(F)F.O=C(O)C(F)(F)F.[H][C@@]12CCN(c3nncs3)C[C@@]1([H])O[C@@H](C(=O)Nc1cccnc1)C2 | 10.19 | -
Cl.c1cc(CNc2cnc(C3CCCN3)cn2)ccn1 (centres unmarked) | 36.01 | -
Cc1cc(C(=O)N2CCCC2Cn2nc(C)cc2C)on1 (centres unmarked) | 17.94 | 5.338
O=C(Nc1cnc2n1CCCC2)C1CCNCC1 | 4.992 and -19 | -2.545
NC(=O)C1CCN(C(=O)NCCOc2ccc3c(c2)CCC3)CC1 | 29.46 | 2.632
Cc1nc(C)n(CC2CN(CC(=O)Nc3nccs3)CCO2)n1 (centres unmarked) | 25.76 | -3.376
N#Cc1cccnc1N1CCC2(CCCN(C3CCOCC3)C2=O)C1 (centres unmarked) | 16.27 | 2.796
CC(C)CC(NC(=O)c1ccco1)c1nc2cccnc2n1C (centres unmarked) | -0.8623 | -9.448
CCc1ccc(C(=O)N2CCCC2c2nnc3n2CCCCC3)o1 (centres unmarked) | -20.88 | 0.1148
[H][C@@]12C[C@H](C(=O)NC(C)C)C[C@@]1([H])OCCN2 | 20.26 | -
Cc1ccsc1C(=O)N1CCC2(CC1)C(=O)N(C)CCN2CC1CC1.O=C(O)C(F)(F)F | 29.42 | -
CC(C(=O)NCC1CCN(c2ccncc2)CC1)S(C)(=O)=O (centres unmarked) | -4.312 | 5.19
O=C(O)C(F)(F)F.O=C1CCCC2(CCN(C(=O)c3ccccn3)CC2)N1 | 8.135 | -
Cc1ncsc1CCn1ccnc1-c1cc2n(n1)CCCNC2 | -5.312 | -18.08
COc1ccc(F)c(CN2CCC(c3cc(O)nc(C)n3)C2)c1.O=C(O)CC(O)(CC(=O)O)C(=O)O (centres unmarked) | 9.84 | -
Cc1ccc2c(c1)OC(C)(C)CC2NC(=O)C1CCN(C)CC1 (centres unmarked) | 27.56 | -5.16
OC1(CNCCCN2CCc3ccccc32)CCNC1 (centres unmarked) | -1.674 | 6.604
C[C@H]1CN(c2ccccn2)C[C@@]12CCN(Cc1cccnc1)C2=O | - | 2.439
CC(=O)Cc1c(C)nn(-c2cncc(N)c2)c1C | 0.5207 | -2.915
CC(C)(C)NCc1ccc(OCc2ccc3c(c2)OCCO3)cc1 | - | 1.392
O=C(O)C(F)(F)F.[H][C@@]12CCCO[C@]1([H])[C@@H](OCC(=O)N(C)C)CN2Cc1ccccc1 | -12.84 | -
CSCCC1c2nc[nH]c2CCN1Cc1cc(Cl)ccc1O (centres unmarked) | 8.861 | -61.61
CC(=O)NCC1CCCN(Cc2nc(Cc3ccccc3F)no2)C1 (centres unmarked) | 17.87 | 6.599
CN1CCN(c2cc(CNC(=O)c3cnccn3)ccn2)CC1 | 35.51 | 3.325
Cc1nnc(NC(=O)NC(C)C(=O)NC2CCCC2)s1 (centres unmarked) | 25.16 | 0.7371
CC(=O)NCc1noc2c1CN(Cc1cccs1)CC2 | 20.69 | -
O=C(CN1CCC[C@H]1C(=O)O)NCCOc1cccc(Cl)c1 | - | -6.28
COC(C(=O)N1CCN(Cc2noc(C)n2)CC1)c1ccccc1 (centres unmarked) | -0.1212 | -4.721
Cc1c[nH]c(CN2CC[C@@]3(O)CCN(C(=O)C4CCC4)C[C@H]3C2)n1 | - | -0.9677
Cn1c2c(c(=O)c3ccccc31)CCC(C)(C)O2 | 2.084 | 7.83
Cc1ccnn1C(C)C(=O)Nc1cc(-c2ccncc2)[nH]n1 (centres unmarked) | 18.87 | -1.222
N#Cc1nccnc1NCCC1CCN(CC(F)(F)F)CC1 | -6.517 | -6.016
O=C(c1ccc(C2CCCN2)s1)N1CCN(C(=O)N2CCOCC2)CC1 (centres unmarked) | 13.04 | 2.828
c1cnn(CC2CN(CCc3ccncc3)CCO2)c1 (centres unmarked) | -4.426 | 3.077
Cc1noc(C2CCC3(CCN(C(=O)c4ccnnc4)CC3)O2)n1 (centres unmarked) | -8.042 | -7.407
CC(O)CN1CCN(C(=O)c2ccc(Cn3cccn3)cc2)CC1 (centres unmarked) | 27.74 | 5.575
CN(C)CC(=O)N1CCC2(CCc3ccc(-c4ccncc4)cc32)CC1.O=C(O)C(F)(F)F.O=C(O)C(F)(F)F | 33.01 | -
Cc1cccc(C(=O)N2CC(Cc3nccc4ccn(C)c34)C2)n1 | 16.43 | 2.107
O=S1(=O)CCC(c2nnc(-c3cnc4onc(C5CC5)c4c3)o2)C1 (centres unmarked) | -16.8 | -2.233
CN1CCN(C(=O)CCc2cccnc2)c2ccc(F)cc21 | -3.353 | -1.071
O=C(c1cn(-c2ccccc2)nn1)N1CCCC(n2cccn2)C1 (centres unmarked) | 1.166 | -5.63
O=C(COCc1nc(-c2ccncc2)no1)N1CCOCC1 | 47.67 | 6.085
CCOCC1COCCC12CCN(C(=O)C1=CCCCC1)CC2 (centres unmarked) | -8.539 | -
COc1cc(CN2CCC(COCc3ccccc3)CC2)cc(OC)c1 | 11.79 | 1.392
Cc1c(CCC(=O)Nc2ccc(Cl)cn2)cnn1C | -21.55 | -3.353
CN(Cc1ccc2c(c1)OCO2)Cc1nc(-c2ccco2)no1 | 37.82 | 2.415
Cc1ccc(OCCC(=O)N(C)CCC#N)cc1C | -19.49 | 8.211
c1cnnc(N2CCCC2CNCc2nc(-c3ccco3)no2)c1 (centres unmarked) | 35.76 | 2.895
COc1ccc(C(CO)NC(=O)Nc2cccnc2)cc1 (centres unmarked) | -16.78 | -0.6397
O=C1N(CCc2ccccc2)CCCC12CCN(C(CO)CO)C2 (centres unmarked) | -16.48 | 3.752
CCCS(=O)(=O)N1CCC2(CC1)CC(=O)N(Cc1cc(F)cc(F)c1)C2 | -1.332 | 3.249
O=C1NC2(CCc3ccccc31)CCN(Cc1cccnc1)C2 (centres unmarked) | 6.293 | 2.102
CC(C)c1nc(CN(C)Cc2ccc(O)c(Cl)c2)cs1 | 3.465 | 3.321
O=C(NCC1(O)CCOCC1)c1ccc(F)cc1 | -16.73 | -0.361
CC(C)c1nc(CN2CCCC2Cn2cccn2)no1 (centres unmarked) | 7.789 | -1.161
Cc1ccccc1OCC(O)CN1CCC(Cn2cccn2)CC1 (centres unmarked) | 27.56 | -5.898
N#Cc1ccc(N2CCC3(CCC(=O)N3CCN3CCCC3)CC2)nc1.O=C(O)C(F)(F)F.O=C(O)C(F)(F)F | 9.193 | -
O=C(O)C(F)(F)F.O=C1COC2(CCN(C(=O)C3CC=CC3)CC2)CN1Cc1cccnc1 | 29.09 | -
CC(C)c1nc(CS(=O)(=O)Cc2noc(C3CC3)n2)cs1 | 11.72 | -1.434
Cc1ccc(C)c(C(NC2CCCC2)c2cccnc2)c1 (centres unmarked) | 18.39 | -1.845
CN(Cc1noc2c1CCCC2)C(=O)C1Cc2ccccc2CN1C (centres unmarked) | -4.915 | -1.615
O=C1CCC2(CCCN(C(=O)c3ncc[nH]3)C2)CN1CCc1c[nH]cn1 (centres unmarked) | -8.857 | -4.405
O=C(Nc1cccnc1)[C@H]1CN(Cc2ccco2)C[C@H]2OCC[C@@H]12 | - | 6.158
O=C(C1CCOCC1)N1CCC2(CC1)CN(c1ccsc1)C(=O)CO2 | 7.951 | 2.25

6 of the entries, repeated:

structure,A,B
c1cnnc(N2CCCC2CNCc2nc(-c3ccco3)no2)c1 (centres unmarked),35.76,2.895
O=C(O)C(F)(F)F.[H][C@@]12CCCO[C@]1([H])[C@@H](OCC(=O)N(C)C)CN2Cc1ccccc1,-12.84,-
CN1CCN(c2cc(CNC(=O)c3cnccn3)ccn2)CC1,35.51,3.325
Cc1cccc(C(=O)N2CC(Cc3nccc4ccn(C)c34)C2)n1,16.43,2.107
CC(C)c1nc(CS(=O)(=O)Cc2noc(C3CC3)n2)cs1,11.72,-1.434
N#Cc1ccc(N2CCC3(CCC(=O)N3CCN3CCCC3)CC2)nc1.O=C(O)C(F)(F)F.O=C(O)C(F)(F)F,9.193,-

From ChEMBL document CHEMBL3988442, “University of Dundee, Small-Polar-MMV Screening Library” (2021).